Test results from the supplement of paper PMC11438910.
This is one part of the list. The signal is at background level for most entries.

What was measured:
Test in all cases: fluorescence intensity of antibody binding to polysaccharide-coupled beads; higher = stronger binding
[1] = target: pneumococcal polysaccharide C-Poly-1
[2] = target: pneumococcal polysaccharide C-Poly-2
[3] = target: pneumococcal polysaccharide Pn1
[4] = target: pneumococcal polysaccharide Pn10A
[5] = target: pneumococcal polysaccharide Pn10B
[6] = target: pneumococcal polysaccharide Pn10C
[7] = target: pneumococcal polysaccharide Pn10F
[8] = target: pneumococcal polysaccharide Pn11A
[9] = target: pneumococcal polysaccharide Pn11B
[10] = target: pneumococcal polysaccharide Pn11C
[11] = target: pneumococcal polysaccharide Pn11D
[12] = target: pneumococcal polysaccharide Pn11F
[13] = target: pneumococcal polysaccharide Pn12A
[14] = target: pneumococcal polysaccharide Pn12B
[15] = target: pneumococcal polysaccharide Pn12F
[16] = target: pneumococcal polysaccharide Pn13
[17] = target: pneumococcal polysaccharide Pn14
[18] = target: pneumococcal polysaccharide Pn15A
[19] = target: pneumococcal polysaccharide Pn15B
[20] = target: pneumococcal polysaccharide Pn15C
[21] = target: pneumococcal polysaccharide Pn15F
[22] = target: pneumococcal polysaccharide Pn16A
[23] = target: pneumococcal polysaccharide Pn16F
[24] = antibody concentration 0.1 ng/mL
[25] = antibody concentration 0.534724 ng/mL
[26] = antibody concentration 2.8593 ng/mL
[27] = antibody concentration 15.2894 ng/mL
[28] = antibody concentration 81.7561 ng/mL
[29] = antibody concentration 437.17 ng/mL
[30] = antibody concentration 2337.65 ng/mL
[31] = antibody concentration 12500 ng/mL

B1: 3S41.3 (protein)
chain 1: EVQLVESGGGLVQPGGSLRLSCATSGFTFSNYWMYWFRQAPGKGLEWVSTISGSSSNTYYPDSVKGRFTISRDNAKNTLYLQINSLRAEDTAVYYCARRHDHSSGWAFDYWGQGVLVTVSS
chain 2: EIVMTQSPATLSLSPGERATLSCRASQSVGSNLAWYQQKPGQAPKLLIYDASSRATGIPDRFSGSGSGTDFTLTVSSLEPEDVGVYYCQQYNNWKTFGQGTKVEIK
B1 was tested, and the fluorescence intensity [1, 24] was 24.2 MFI, the fluorescence intensity [1, 25] was 27 MFI and the fluorescence intensity [1, 26] was 25 MFI. For the same binder, the fluorescence intensity [1, 27] was 25.5 MFI, the fluorescence intensity [1, 28] was 32.5 MFI and the fluorescence intensity [1, 29] was 116 MFI. It also gave a fluorescence intensity [1, 30] of 1150 MFI, a fluorescence intensity [1, 31] of 2210 MFI and a fluorescence intensity [2, 24] of 20.5 MFI. For the same binder, the fluorescence intensity [2, 25] was 19.5 MFI, the fluorescence intensity [2, 26] was 19.5 MFI and the fluorescence intensity [2, 27] was 20.5 MFI. It also gave a fluorescence intensity [2, 28] of 25 MFI, a fluorescence intensity [2, 29] of 102 MFI and a fluorescence intensity [2, 30] of 1130 MFI. The fluorescence intensity [2, 31] was 2030 MFI, the fluorescence intensity [3, 24] was 12.8 MFI and the fluorescence intensity [3, 25] was 12.5 MFI. For the same binder, the fluorescence intensity [3, 26] was 14.5 MFI, the fluorescence intensity [3, 27] was 14.5 MFI and the fluorescence intensity [3, 28] was 15.5 MFI. It also gave a fluorescence intensity [3, 29] of 25.5 MFI, a fluorescence intensity [3, 30] of 121 MFI and a fluorescence intensity [3, 31] of 388 MFI. It also gave a fluorescence intensity [4, 24] of 25 MFI, a fluorescence intensity [4, 25] of 26 MFI and a fluorescence intensity [4, 26] of 24.5 MFI. The fluorescence intensity [4, 27] was 25 MFI, the fluorescence intensity [4, 28] was 26 MFI and the fluorescence intensity [4, 29] was 37.2 MFI. For the same binder, the fluorescence intensity [4, 30] was 120 MFI, the fluorescence intensity [4, 31] was 256 MFI and the fluorescence intensity [5, 24] was 23.5 MFI. It also gave a fluorescence intensity [5, 25] of 23 MFI, a fluorescence intensity [5, 26] of 20 MFI and a fluorescence intensity [5, 27] of 20 MFI. It also gave a fluorescence intensity [5, 28] of 23.5 MFI, a fluorescence intensity [5, 29] of 24.2 MFI and a fluorescence intensity [5, 30] of 35.8 MFI. For the same binder, the fluorescence intensity [5, 31] was 82.8 MFI, the fluorescence intensity [6, 24] was 14.8 MFI and the fluorescence intensity [6, 25] was 15.5 MFI. For the same binder, the fluorescence intensity [6, 26] was 15.2 MFI, the fluorescence intensity [6, 27] was 14.5 MFI and the fluorescence intensity [6, 28] was 16.5 MFI. For the same binder, the fluorescence intensity [6, 29] was 16.2 MFI, the fluorescence intensity [6, 30] was 26 MFI and the fluorescence intensity [6, 31] was 58.8 MFI. It also gave a fluorescence intensity [7, 24] of 19.2 MFI, a fluorescence intensity [7, 25] of 20 MFI and a fluorescence intensity [7, 26] of 20.5 MFI. For the same binder, the fluorescence intensity [7, 27] was 19 MFI, the fluorescence intensity [7, 28] was 20 MFI and the fluorescence intensity [7, 29] was 20 MFI. It also gave a fluorescence intensity [7, 30] of 22.5 MFI, a fluorescence intensity [7, 31] of 36.5 MFI and a fluorescence intensity [8, 24] of 25.5 MFI. For the same binder, the fluorescence intensity [8, 25] was 25.8 MFI, the fluorescence intensity [8, 26] was 29 MFI and the fluorescence intensity [8, 27] was 26.8 MFI. For the same binder, the fluorescence intensity [8, 28] was 32 MFI, the fluorescence intensity [8, 29] was 40.2 MFI and the fluorescence intensity [8, 30] was 52 MFI. The fluorescence intensity [8, 31] was 85.2 MFI, the fluorescence intensity [9, 24] was 25 MFI and the fluorescence intensity [9, 25] was 28 MFI. It also gave a fluorescence intensity [9, 26] of 23.2 MFI, a fluorescence intensity [9, 27] of 24 MFI and a fluorescence intensity [9, 28] of 29.5 MFI. The fluorescence intensity [9, 29] was 31.5 MFI, the fluorescence intensity [9, 30] was 37.5 MFI and the fluorescence intensity [9, 31] was 62.8 MFI. For the same binder, the fluorescence intensity [10, 24] was 21 MFI, the fluorescence intensity [10, 25] was 20 MFI and the fluorescence intensity [10, 26] was 20 MFI. It also gave a fluorescence intensity [10, 27] of 20.5 MFI, a fluorescence intensity [10, 28] of 22.8 MFI and a fluorescence intensity [10, 29] of 49.5 MFI. It also gave a fluorescence intensity [10, 30] of 354 MFI, a fluorescence intensity [10, 31] of 1250 MFI and a fluorescence intensity [11, 24] of 23.5 MFI. The fluorescence intensity [11, 25] was 21.5 MFI, the fluorescence intensity [11, 26] was 20 MFI and the fluorescence intensity [11, 27] was 22.5 MFI. The fluorescence intensity [11, 28] was 23.5 MFI, the fluorescence intensity [11, 29] was 32.5 MFI and the fluorescence intensity [11, 30] was 154 MFI. For the same binder, the fluorescence intensity [11, 31] was 480 MFI, the fluorescence intensity [12, 24] was 14 MFI and the fluorescence intensity [12, 25] was 13 MFI. It also gave a fluorescence intensity [12, 26] of 13.8 MFI, a fluorescence intensity [12, 27] of 12.5 MFI and a fluorescence intensity [12, 28] of 14.2 MFI. The fluorescence intensity [12, 29] was 16.5 MFI, the fluorescence intensity [12, 30] was 25.8 MFI and the fluorescence intensity [12, 31] was 67.5 MFI. For the same binder, the fluorescence intensity [13, 24] was 16 MFI, the fluorescence intensity [13, 25] was 14 MFI and the fluorescence intensity [13, 26] was 14.5 MFI. For the same binder, the fluorescence intensity [13, 27] was 15.5 MFI, the fluorescence intensity [13, 28] was 16 MFI and the fluorescence intensity [13, 29] was 20 MFI. For the same binder, the fluorescence intensity [13, 30] was 35 MFI, the fluorescence intensity [13, 31] was 132 MFI and the fluorescence intensity [14, 24] was 15.5 MFI. It also gave a fluorescence intensity [14, 25] of 15 MFI, a fluorescence intensity [14, 26] of 15.8 MFI and a fluorescence intensity [14, 27] of 14.5 MFI. For the same binder, the fluorescence intensity [14, 28] was 15.5 MFI, the fluorescence intensity [14, 29] was 18.5 MFI and the fluorescence intensity [14, 30] was 46.5 MFI. For the same binder, the fluorescence intensity [14, 31] was 152 MFI, the fluorescence intensity [15, 24] was 19 MFI and the fluorescence intensity [15, 25] was 18.8 MFI. It also gave a fluorescence intensity [15, 26] of 18.5 MFI, a fluorescence intensity [15, 27] of 18 MFI and a fluorescence intensity [15, 28] of 20 MFI. The fluorescence intensity [15, 29] was 38 MFI, the fluorescence intensity [15, 30] was 193 MFI and the fluorescence intensity [15, 31] was 514 MFI. The fluorescence intensity [16, 24] was 19 MFI, the fluorescence intensity [16, 25] was 17.5 MFI and the fluorescence intensity [16, 26] was 18 MFI. It also gave a fluorescence intensity [16, 27] of 19.2 MFI, a fluorescence intensity [16, 28] of 18.5 MFI and a fluorescence intensity [16, 29] of 20.5 MFI. It also gave a fluorescence intensity [16, 30] of 54.5 MFI, a fluorescence intensity [16, 31] of 176 MFI and a fluorescence intensity [17, 24] of 13.5 MFI. It also gave a fluorescence intensity [17, 25] of 14.5 MFI, a fluorescence intensity [17, 26] of 13.5 MFI and a fluorescence intensity [17, 27] of 15 MFI. The fluorescence intensity [17, 28] was 18.5 MFI, the fluorescence intensity [17, 29] was 90.5 MFI and the fluorescence intensity [17, 30] was 924 MFI. For the same binder, the fluorescence intensity [17, 31] was 1830 MFI, the fluorescence intensity [18, 24] was 12 MFI and the fluorescence intensity [18, 25] was 12 MFI. It also gave a fluorescence intensity [18, 26] of 12.2 MFI, a fluorescence intensity [18, 27] of 13 MFI and a fluorescence intensity [18, 28] of 13.5 MFI. It also gave a fluorescence intensity [18, 29] of 13.2 MFI, a fluorescence intensity [18, 30] of 16.5 MFI and a fluorescence intensity [18, 31] of 33.5 MFI. The fluorescence intensity [19, 24] was 17.5 MFI, the fluorescence intensity [19, 25] was 18.2 MFI and the fluorescence intensity [19, 26] was 19.5 MFI. For the same binder, the fluorescence intensity [19, 27] was 19 MFI, the fluorescence intensity [19, 28] was 21 MFI and the fluorescence intensity [19, 29] was 26 MFI. The fluorescence intensity [19, 30] was 33 MFI, the fluorescence intensity [19, 31] was 57 MFI and the fluorescence intensity [20, 24] was 17.2 MFI. For the same binder, the fluorescence intensity [20, 25] was 16.8 MFI, the fluorescence intensity [20, 26] was 20 MFI and the fluorescence intensity [20, 27] was 17.5 MFI. The fluorescence intensity [20, 28] was 14.8 MFI, the fluorescence intensity [20, 29] was 19 MFI and the fluorescence intensity [20, 30] was 27 MFI. For the same binder, the fluorescence intensity [20, 31] was 59.2 MFI, the fluorescence intensity [21, 24] was 16.5 MFI and the fluorescence intensity [21, 25] was 16.5 MFI. For the same binder, the fluorescence intensity [21, 26] was 16 MFI, the fluorescence intensity [21, 27] was 17.2 MFI and the fluorescence intensity [21, 28] was 17.5 MFI. For the same binder, the fluorescence intensity [21, 29] was 20.8 MFI, the fluorescence intensity [21, 30] was 30 MFI and the fluorescence intensity [21, 31] was 60 MFI. For the same binder, the fluorescence intensity [22, 24] was 14 MFI, the fluorescence intensity [22, 25] was 13 MFI and the fluorescence intensity [22, 26] was 14 MFI. It also gave a fluorescence intensity [22, 27] of 16 MFI, a fluorescence intensity [22, 28] of 14.5 MFI and a fluorescence intensity [22, 29] of 17.2 MFI. It also gave a fluorescence intensity [22, 30] of 30.2 MFI, a fluorescence intensity [22, 31] of 87.5 MFI and a fluorescence intensity [23, 24] of 23 MFI. For the same binder, the fluorescence intensity [23, 25] was 23.2 MFI, the fluorescence intensity [23, 26] was 21.5 MFI and the fluorescence intensity [23, 27] was 24.5 MFI.
